Laboratory results from publication PMC5318909.
Results are given in words; binding and its absence hold for the method and conditions named. Some binding calls cover weakened binding; strength is not graded here.

Chains of the proteins cited; added tags and fusions are not shown. Residues count along the entry.
UniProt P05067, residues 672-713: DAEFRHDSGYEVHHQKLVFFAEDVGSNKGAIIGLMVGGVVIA
UniProt P10997, residues 34-70: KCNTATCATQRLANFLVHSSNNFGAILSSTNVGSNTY

Key:
Aβ42 synthetic peptide [1] = target: Aβ42 synthetic peptide (UniProt P05067); experiment: SEC + ELISA; mtNUCB1 and Aβ42 co-incubated at 37 °C for 24 h; Superdex200 26/60 in 20 mM sodium phosphate pH 8.0, 150 mM NaCl; main peak collected and probed by indirect ELISA for mtNUCB1 and Aβ42; both purified
[2] = target: human islet amyloid polypeptide (hIAPP) (human) (UniProt P10997); experiment: SEC; mtNUCB1 co-incubated with the amyloid protein at 37 °C (hIAPP 3 h stirred; α-synuclein and V30M 24 h shaken); Superdex200 26/60, main peak collected and imaged by AFM; both purified
[3] = target: Ca2+-free mutant variant of soluble nucleobindin 1 (mtNUCB1) (human) (UniProt Q02818); experiment: gel analysis; data not shown; no conditions told; both purified
Aβ42 synthetic peptide [4] = target: Aβ42 synthetic peptide (UniProt P05067); experiment: double immunogold electron microscopy; 10 μM Aβ42 + 10 μM mtNUCB1 incubated at 37 °C for 24 h, or SEC-purified mtNUCB1-Aβ42 protofibrils; stained with mouse anti-Aβ 6E10 (6-nm gold) and rabbit anti-NUCB1 (12-nm gold); both purified
Aβ42 synthetic peptide [5] = target: Aβ42 synthetic peptide (UniProt P05067); experiment: immunogold electron microscopy; data not shown; sample with a mtNUCB1:Aβ42 ratio of 1:4, Aβ42 fibrils; both purified

Measured: binding

B1: Ca2+-free mutant variant of soluble nucleobindin 1 (mtNUCB1) (protein, UniProt Q02818 31-461)
chain: RGAPNKEETPATESPDTGLYYHRYLQEVIDVLETDGHFREKLQAANAEDIKSGKLSRELDFVSHHVRTKLDELKRQEVSRLRMLLKAKMDAEQDPNVQVDHLNLLKQFEHLDPQNQHTFEARDLELLIQTATRDLAQYDAAHHEEFKRYEMLKEHERRRYLESLGEEQRKEAERKLEEQQRRHREHPKVNVPGSQAQLKEVWEELDGLDPNRFNPKTFFILHKINSDGVLDEQALEALFTKELEKVYDPKNEEDDMREMEEERLRMREHVMKNVKTNQDRLVTLEAFLASTQRKEFGDTGEGWETVEMHPAYTEEELRRFEEELAAREAELNAKAQRLSQETEALGRSQGRLEAQKRELQQAVLHMEQRKQQQQQQQGHKAPAAHPEGQLKFHPDTDDVPVPAPAGDQKEVDTSEKKLLERLPEVEVPQHL
binds: Aβ42 synthetic peptide [1] | [2] | [3] | Aβ42 synthetic peptide [4] | Aβ42 synthetic peptide [5]
